Library screen at single concentrations

Values are the deposited “Percent Effect”, in %. The record does not define 0% and 100%; most values in the screen are far below 50% and negative numbers occur (in some assays of this library far below -100). Compounds were drawn at random from those tested, without regard to their results.

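Whole-parasite assay of Trypanosoma brucei over 72 hours; the read-out is not stated. Compounds at 10 µM. The record gives no direction; compounds that gave an IC50 in retests scored well above the rest, so higher reads as stronger inhibition. Values scatter widely below zero; nearly all retest evidence comes from the higher of the two concentrations used. Size under these conditions: about 2,700 compounds, about 14 of them at 50% or above in at least one test.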

* COc1ccccc1CC(=O)NS(=O)(=O)c1ccc(C#N)cc1 : -24.42%
* Cc1csc(NC(=O)CN2CCCC(Cn3nc(C)nc3C)C2)n1 (stereo not shown) : 10.2%
* c1ccc(CN2CCN(c3ccc4nncn4n3)CC2)nc1 : -15.49%
* COc1ccccc1OCCNC(=O)CN1CCN(C)CC1C (stereo not shown) : -55.09%
* CC(O)(CN1CCN(CCO)CC1)c1cccc(C(F)(F)F)c1 (stereo not shown) : -14.13%
* Cn1cc(C2CCCN2Cc2csc(C3CCCC3)n2)cn1 (stereo not shown) : -46.87%
* CCCc1cc(C(=O)NCCN2CCCS2(=O)=O)[nH]n1 : -43.24%
* COc1cccc(-n2c(C)cc(C(=O)NC(C)(C)C(N)=O)c2C)c1 : -6.227%
* Cc1cnn(CCNCc2ccc(C#N)cc2)c1 : -7.422%
* CCn1c(C)cc(C(=O)N2CCc3nnc(N)cc3C2)c1C : -32.99%
* Cn1cc(C#N)c(=O)n(CC(O)c2ccccc2F)c1=O (stereo not shown) : -55.2%
* Cc1ccc(CN(C)C(=O)CN2CCCC(Cn3cncn3)C2)cc1 (stereo not shown) : -36.21%
* O=C(O)c1cc(S(=O)(=O)Nc2ccc(F)cc2Cl)cc2c1OCCO2 : -23.88%
* Cc1nc(CN2CCCC(NCCOc3cccc(C#N)c3)C2)no1 (stereo not shown) : -61.12%
* Cc1cnn(CC2CCCCN2C(=O)c2csc(C)n2)c1 (stereo not shown) : -26.45%
* CCc1nc(C2CCCN(C(=O)NC(C)C)C2)no1 (stereo not shown) : -38.11%
* O=C(CNCCn1cccn1)NCC1(c2ccccc2)CCC1 : -55.36%
* Cc1cc(C(=O)N2CCCC(n3cccn3)C2)c(C)n1C1CC1 (stereo not shown) : -43.11%
* CCc1cnc(CN(C)C2CCN(CC(=O)Nc3nccs3)C2)o1 (stereo not shown) : -37.99%
* Cc1cnn(CC2CCCN2C(=O)c2cccc(F)c2F)c1 (stereo not shown) : -46.72%
* CC1CN(CC(=O)Nc2ccncc2)CCN1Cc1nccn1C (stereo not shown) : -63.21%
* Cc1nn(C)c(N(C)C)c1CNCc1cccc(Cn2cncn2)c1 : -27.01%
* CCc1c(C(=O)N2CCC(CC(N)=O)CC2)cnn1C(C)(C)C : -43.01%
* Cc1ccc(C)c(C(=O)N2CCN(C(=O)Cc3ccccn3)CC2)c1 : 1.175%
* COCCCNC(=O)CN(C)C(=O)c1ccc(-n2cccc2)cc1O : -44.12%
* CCN1CCN(C(C)CNC(=O)Nc2cnn(CC)c2)CC1 (stereo not shown) : -15.24%
* Fc1cccc(-n2ccc(CN3CCCC3Cn3cccn3)n2)c1 (stereo not shown) : -58.75%
* CN(Cc1ccco1)C(=O)CN1CCOC(Cn2cccn2)C1 (stereo not shown) : -37.03%
* COc1cc(S(=O)(=O)N2CCc3ccc(Cl)cc32)cc(C(=O)O)c1OC : -56.8%
* COc1ccc(C(CNC(=O)Nc2cc(C)nn2C)N(C)C)cc1 (stereo not shown) : 0.4389%
* Cc1cc(C)n(CC2CCCN2C(=O)c2cccn3ccnc23)n1 (stereo not shown) : -30.27%
* CCCC1CCCN(Cc2csc(-c3ncccn3)n2)CC1 (stereo not shown) : -32.6%
* CCN1CCN(C2CCN(Cc3noc(C4CC4)n3)CC2)C1=O : 7.951%
* CC(C)CCC(=O)NCCc1ccn(-c2ccccc2)n1 : 100.3%
* Cn1cccc1C1CCCCCN1C(=O)c1ccc(NC2CC2)nc1 (stereo not shown) : -63.79%
* CCOc1ccnc(N2CCCN(C(=O)c3cc[nH]c3C)CC2)n1 : -35.32%
* c1cnnc(N2CCCC2CNCc2noc(C3CC3)n2)c1 (stereo not shown) : -59.32%
* CCc1nc(C2CCCN(C(=O)NC3CC3)C2)no1 (stereo not shown) : -54.74%
* COc1c(C2CCCN2C(=O)c2ccc(O)nc2)c(C)nn1C (stereo not shown) : -34.15%
* c1ccc(-n2cc(CN3CCCC3Cn3cccn3)nn2)cc1 (stereo not shown) : -33.07%
* Cc1nc(C2CCCN2CC(=O)NCCOc2cccc(F)c2)no1 (stereo not shown) : -18.24%
* O=C(NCCc1ccn(-c2ccccc2)n1)N1CCCC(O)C1 (stereo not shown) : 103.1%
* Cc1nc(C(=O)N2CCCC2c2cnn(C)c2)ccc1C#N (stereo not shown) : -53.91%
* c1ncn(CC2CCCN(Cc3nc(-c4ccoc4)no3)C2)n1 (stereo not shown) : -4.314%
* COCCC(=O)N1CCCN(Cc2nccn2C(C)C)CC1 : -3.919%

The first 5 entries again:

structure,effect
COc1ccccc1CC(=O)NS(=O)(=O)c1ccc(C#N)cc1,-24.42%
Cc1csc(NC(=O)CN2CCCC(Cn3nc(C)nc3C)C2)n1 (stereo not shown),10.2%
c1ccc(CN2CCN(c3ccc4nncn4n3)CC2)nc1,-15.49%
COc1ccccc1OCCNC(=O)CN1CCN(C)CC1C (stereo not shown),-55.09%
CC(O)(CN1CCN(CCO)CC1)c1cccc(C(F)(F)F)c1 (stereo not shown),-14.13%

The values are deposited in ChEMBL (CHEMBL3988442, “University of Dundee, Small-Polar-MMV Screening Library” (2021)).